No constants are given. Whether binding was seen depends on the method and setting. Some entries that bind do so weakly or less than the wild type.
T1: pol30-Rad27L2 (yeast, UniProt P15873 1-258, IDCL DIDADFLKIEEL to D––VDTLKITEL)
T1 construct: PCNA (POL30), yeast; two residues after the first aspartic acid of the IDCL are deleted; source: yeast two-hybrid fusion (pAD-GAL4, strain YRG2)
T1 sequence: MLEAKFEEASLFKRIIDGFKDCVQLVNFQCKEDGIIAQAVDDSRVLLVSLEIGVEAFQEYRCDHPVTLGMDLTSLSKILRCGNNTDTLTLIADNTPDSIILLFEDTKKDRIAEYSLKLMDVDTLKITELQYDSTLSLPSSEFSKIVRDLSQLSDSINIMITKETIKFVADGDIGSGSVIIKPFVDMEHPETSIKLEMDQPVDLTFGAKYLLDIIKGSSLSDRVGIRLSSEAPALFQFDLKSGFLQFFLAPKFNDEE

T2: pol30-Rad30E2 (yeast, UniProt P15873 1-258, IDCL DIDADFLKIEEL to DDDWDFLKILEL)
T2 construct: PCNA (POL30), yeast; source: yeast two-hybrid fusion (pAD-GAL4, strain YRG2)
T2 sequence: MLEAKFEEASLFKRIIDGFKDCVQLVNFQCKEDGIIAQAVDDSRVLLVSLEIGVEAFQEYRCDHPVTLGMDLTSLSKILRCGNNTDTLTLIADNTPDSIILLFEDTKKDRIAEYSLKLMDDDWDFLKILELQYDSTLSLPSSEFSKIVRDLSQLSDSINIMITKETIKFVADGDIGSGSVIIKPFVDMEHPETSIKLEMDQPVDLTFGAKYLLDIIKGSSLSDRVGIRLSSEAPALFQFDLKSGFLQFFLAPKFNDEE

T3: pol30-Rad27E6 (yeast, UniProt P15873 1-258, IDCL DIDADFLKIEEL to DGDYDILKIREL)
T3 construct: PCNA (POL30), yeast; source: yeast two-hybrid fusion (pAD-GAL4, strain YRG2)
T3 sequence: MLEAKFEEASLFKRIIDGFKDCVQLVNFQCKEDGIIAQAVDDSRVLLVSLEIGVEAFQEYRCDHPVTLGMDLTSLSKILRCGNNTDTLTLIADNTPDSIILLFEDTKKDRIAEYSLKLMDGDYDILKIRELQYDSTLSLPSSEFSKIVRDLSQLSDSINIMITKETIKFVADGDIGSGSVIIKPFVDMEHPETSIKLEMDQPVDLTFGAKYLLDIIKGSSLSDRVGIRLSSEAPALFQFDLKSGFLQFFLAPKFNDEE

T4: pol30-Rad30E9 (yeast, UniProt P15873 1-258, IDCL DIDADFLKIEEL to DNDWDFLKIDEL)
T4 construct: PCNA (POL30), yeast; also called Pol30-Rad30E9p; source: yeast two-hybrid fusion (pAD-GAL4, strain YRG2)
T4 sequence: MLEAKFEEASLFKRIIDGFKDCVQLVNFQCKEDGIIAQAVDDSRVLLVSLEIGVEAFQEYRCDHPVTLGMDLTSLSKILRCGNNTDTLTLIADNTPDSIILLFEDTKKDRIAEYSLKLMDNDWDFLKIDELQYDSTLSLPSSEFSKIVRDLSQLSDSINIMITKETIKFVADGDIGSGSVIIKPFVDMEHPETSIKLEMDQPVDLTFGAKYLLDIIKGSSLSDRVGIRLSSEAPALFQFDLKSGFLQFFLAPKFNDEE

T5: pol30-Pol32E5 (yeast, UniProt P15873 1-258, IDCL DIDADFLKIEEL to DADNDFLKISEL)
T5 construct: PCNA (POL30), yeast; source: yeast two-hybrid fusion (pAD-GAL4, strain YRG2)
T5 sequence: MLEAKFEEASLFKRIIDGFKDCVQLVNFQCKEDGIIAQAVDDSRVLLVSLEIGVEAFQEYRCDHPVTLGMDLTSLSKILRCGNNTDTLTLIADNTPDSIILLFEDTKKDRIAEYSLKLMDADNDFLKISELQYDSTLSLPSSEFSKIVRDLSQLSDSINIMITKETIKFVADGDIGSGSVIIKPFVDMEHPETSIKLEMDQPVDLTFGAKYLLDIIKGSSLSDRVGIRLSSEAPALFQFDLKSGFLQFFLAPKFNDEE

T6: pol30-Rad27E31 (yeast, UniProt P15873 1-258, IDCL DIDADFLKIEEL to DGDYDVLKIREL)
T6 construct: PCNA (POL30), yeast; source: yeast two-hybrid fusion (pAD-GAL4, strain YRG2)
T6 sequence: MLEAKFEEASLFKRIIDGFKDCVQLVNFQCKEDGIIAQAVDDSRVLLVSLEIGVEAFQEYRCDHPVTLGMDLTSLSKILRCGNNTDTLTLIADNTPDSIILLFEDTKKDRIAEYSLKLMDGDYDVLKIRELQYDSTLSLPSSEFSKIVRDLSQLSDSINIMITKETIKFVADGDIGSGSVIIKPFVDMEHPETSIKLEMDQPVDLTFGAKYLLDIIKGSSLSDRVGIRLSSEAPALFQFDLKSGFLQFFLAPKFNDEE


Key:
Assay in all cases: two-hybrid; pAD-GAL4-PCNA WT or mutant (called bait) and pBD-GAL4-partner (called prey) in strain YRG2; 10-fold serial dilutions spotted on SC-Leu-Trp-His plates, 30°C, 3 d; growth similar to WT PCNA is denoted 1
pol30-Rad27L2 = molecular target: T1, pol30-Rad27L2
pol30-Rad30E2 = molecular target: T2, pol30-Rad30E2
pol30-Rad27E6 = molecular target: T3, pol30-Rad27E6
pol30-Rad30E9 = molecular target: T4, pol30-Rad30E9
[1] = molecular target: proliferating cell nuclear antigen (PCNA) (yeast) (UniProt P15873)
pol30-Pol32E5 = molecular target: T5, pol30-Pol32E5
pol30-Rad27E31 = molecular target: T6, pol30-Rad27E31

binding (pol30-Rad27L2) | binding (pol30-Rad30E2) | binding (pol30-Rad27E6) | binding (pol30-Rad30E9) | binding [1] | binding (pol30-Pol32E5) | binding (pol30-Rad27E31) | Binder
binds | binds | binds | binds | binds | binds | binds | Msh6 (natural protein, yeast, UniProt Q03834 1-1242, looked up, Msh6 (mismatch repair), yeast; also called pBD-Msh6; source: yeast two-hybrid fusion (pBD-GAL4, strain YRG2)) MAPATPKTSKTAHFENGSTSSQKKMKQSSLLSFFSKQVPSGTPSKKVQKPTPATLENTATDKITKNPQGGKTGKLFVDVDEDNDLTIAEETVSTVRSDIMHSQEPQSDTMLNSNTTEPKSTTTDEDLSSSQSRRNHKRRVNYAESDDDDSDTTFTAKRKKGKVVDSESDEDEYLPDKNDGDEDDDIADDKEDIKGELAEDSGDDDDLISLAETTSKKKFSYNTSHSSSPFTRNISRDNSKKKSRPNQAPSRSYNPSHSQPSATSKSSKFNKQNEERYQWLVDERDAQRRPKSDPEYDPRTLYIPSSAWNKFTPFEKQYWEIKSKMWDCIVFFKKGKFFELYEKDALLANALFDLKIAGGGRANMQLAGIPEMSFEYWAAQFIQMGYKVAKVDQRESMLAKEMREGSKGIVKRELQCILTSGTLTDGDMLHSDLATFCLAIREEPGNFYNETQLDSSTIVQKLNTKIFGAAFIDTATGELQMLEFEDDSECTKLDTLMSQVRPMEVVMERNNLSTLANKIVKFNSAPNAIFNEVKAGEEFYDCDKTYAEIISSEYFSTEEDWPEVLKSYYDTGKKVGFSAFGGLLYYLKWLKLDKNLISMKNIKEYDFVKSQHSMVLDGITLQNLEIFSNSFDGSDKGTLFKLFNRAITPMGKRMMKKWLMHPLLRKNDIESRLDSVDSLLQDITLREQLEITFSKLPDLERMLARIHSRTIKVKDFEKVITAFETIIELQDSLKNNDLKGDVSKYISSFPEGLVEAVKSWTNAFERQKAINENIIVPQRGFDIEFDKSMDRIQELEDELMEILMTYRKQFKCSNIQYKDSGKEIYTIEIPISATKNVPSNWVQMAANKTYKRYYSDEVRALARSMAEAKEIHKTLEEDLKNRLCQKFDAHYNTIWMPTIQAISNIDCLLAITRTSEYLGAPSCRPTIVDEVDSKTNTQLNGFLKFKSLRHPCFNLGATTAKDFIPNDIELGKEQPRLGLLTGANAAGKSTILRMACIAVIMAQMGCYVPCESAVLTPIDRIMTRLGANDNIMQGKSTFFVELAETKKILDMATNRSLLVVDELGRGGSSSDGFAIAESVLHHVATHIQSLGFFATHYGTLASSFKHHPQVRPLKMSILVDEATRNVTFLYKMLEGQSEGSFGMHVASMCGISKEIIDNAQIAADNLEHTSRLVKERDLAANNLNGEVVSVPGGLQSDFVRIAYGDGLKNTKLGSGEGVLNYDWNIKRNVLKSLFSIIDDLQS
binds | binds | binds | binds | binds | binds | binds | Ung1 (natural protein, yeast, UniProt P12887 1-359, looked up, Ung1 (base excision repair), yeast; also called pBD-Ung1; source: yeast two-hybrid fusion (pBD-GAL4, strain YRG2)) MWCMRRLPTNSVMTVARKRKQTTIEDFFGTKKSTNEAPNKKGKSGATFMTITNGAAIKTETKAVAKEANTDKYPANSNAKDVYSKNLSSNLRTLLSLELETIDDSWFPHLMDEFKKPYFVKLKQFVTKEQADHTVFPPAKDIYSWTRLTPFNKVKVVIIGQDPYHNFNQAHGLAFSVKPPTPAPPSLKNIYKELKQEYPDFVEDNKVGDLTHWASQGVLLLNTSLTVRAHNANSHSKHGWETFTKRVVQLLIQDREADGKSLVFLLWGNNAIKLVESLLGSTSVGSGSKYPNIMVMKSVHPSPLSASRGFFGTNHFKMINDWLYNTRGEKMIDWSVVPGTSLREVQEANARLESESKDP

From publication PMC2953525, “Subtle Alterations in PCNA-Partner Interactions Severely Impair DNA Replication and Repair” (PLoS Biology, 2010)
